# Source: patent US20050042244A1, “Method of controlling acarian and device for use in the same” (KURARAY CO LTD, priority 2002, published 2005)
# System: human
# Assay: Odor and effect on human of sampled gas containing farnesylacetone
# Conditions: gas containing 0.001 μg/L farnesylacetone
compound,measurement,setting,value
CC(=O)CC/C=C(\C)CC/C=C(\C)CCC=C(C)C [farnesylacetone],odor of gas for human,,almost no smell for human
same,odor of gas for human,listed as Farnesylacetone,scarcely had an odor detected by human
